In the supplement of paper PMC10331698:
± gives the standard deviation of the averaged measurements. Most entries show no effect beyond the scatter of the controls.

Tests used:
Assay in all cases: level (log10 ratio to DMSO vehicle control); higher = higher biomarker level / cell amount than vehicle control
[1] = compound: FC(F)(F)COC(OCC(F)(F)F)OCC(F)(F)F [tris(Trifluoroethoxy)methane] (in DMSO); conditions: 2200 nM
Procedure: (§1)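 BioMAP Diversity Plus panel of 12 human primary cell co-culture systems (3C, 4H, LPS, SAg, BT, BF4T, BE3C, CASM3C, HDF3CGF, KF3CT, MyoF, Mphg). Compounds were added 1 h before stimulation and left for 24 h (MyoF 48 h; BT 72 h for soluble read-outs or 6 d for IgG). Biomarkers were read by ELISA, cytotoxicity by SRB, PBMC viability and proliferation by Alamar Blue. Each well value was divided by the mean of 8 DMSO control wells on the same plate and log10 transformed; duplicate blinded samples were tested at 4 concentrations.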

[2] = compound: O=S(=O)(O)C(F)(F)C(F)(F)C(F)(F)C(F)(F)F [Perfluorobutanesulfonic acid] (in DMSO)
Procedure: as §1

[3] = compound: OCC(F)(F)C(F)(F)C(F)(F)C(F)(F)C(F)(F)C(F)(F)CO [1H,1H,8H,8H-Perfluorooctane-1,8-diol] (in DMSO); conditions: 2200 nM
Procedure: as §1

[4] = compound: OCCCC(F)(F)C(F)(F)C(F)(F)C(F)(F)C(F)(F)C(F)(F)C(F)(F)C(F)(F)F [3-(Perfluorooctyl)propanol] (in DMSO); conditions: 2200 nM
Procedure: as §1

[5] = compound: OCC(F)(F)OC(F)(F)C(F)(F)OC(F)(F)CO [1H,1H,8H,8H-Perfluoro-3,6-dioxaoctane-1,8-diol] (in DMSO); conditions: 2200 nM
Procedure: as §1

[6] = compound: O=C(O)C(F)(F)C(F)(F)C(F)(F)C(=O)O [Hexafluoroglutaric acid] (in DMSO)
Procedure: as §1

[7] = compound: FC(F)(F)C(F)(F)CNCC(F)(F)C(F)(F)F [Bis(1H,1H-perfluoropropyl)amine] (in DMSO); conditions: 2200 nM
Procedure: as §1

[8] = compound: OCC(F)(F)C(F)(F)C(F)(F)C(F)F [1H,1H,5H-Perfluoropentanol] (in DMSO); conditions: 2200 nM
Procedure: as §1

[9] = compound: OCC(F)(F)C(F)(F)C(F)(F)C(F)(F)C(F)(F)C(F)(F)F [6:1 Fluorotelomer alcohol] (in DMSO); conditions: 2200 nM
Procedure: as §1

[10] = compound: O=C(O)C(F)(F)C(F)(F)C(F)(F)C(F)(F)C(F)(F)F [Perfluorohexanoic acid] (in DMSO)
Procedure: as §1

[11] = compound: O=C(O)C(F)(OC(F)(F)C(F)(OC(F)(F)C(F)(OC(F)(F)C(F)(F)C(F)(F)F)C(F)(F)F)C(F)(F)F)C(F)(F)F [Perfluoro-(2,5,8-trimethyl-3,6,9-trioxadodecanoic)acid] (in DMSO); conditions: 370 nM
Procedure: as §1

[12] = compound: O=C(O)C(F)(F)C(F)(F)C(F)(F)OC(F)(C(F)(F)F)C(F)(F)F [Perfluoro-4-isopropoxybutanoic acid] (in DMSO); conditions: 2200 nM
Procedure: as §1

[13] = compound: FC(F)(F)C(F)(F)C(F)(F)C(F)(F)CCI [1H,1H,2H,2H-Perfluorohexyl iodide] (in DMSO); conditions: 2200 nM
Procedure: as §1

[14] = compound: C=C(C)C(=O)OCCC(F)(F)C(F)(F)C(F)(F)C(F)(F)C(F)(F)C(F)(F)F [6:2 Fluorotelomer methacrylate] (in DMSO); conditions: 2200 nM
Procedure: as §1

[15] = compound: CNS(=O)(=O)C(F)(F)C(F)(F)C(F)(F)C(F)(F)C(F)(F)C(F)(F)C(F)(F)C(F)(F)F [N-Methylperfluorooctanesulfonamide] (in DMSO); conditions: 2200 nM
Procedure: as §1

[16] = compound: O=C(O)CCC(F)(F)C(F)(F)C(F)(F)F [3:3 Fluorotelomer carboxylic acid] (in DMSO); conditions: 2200 nM
Procedure: as §1

[17] = compound: O=C(O)C(F)(OC(F)(F)C(F)(F)C(F)(F)F)C(F)(F)F [Ammonium perfluoro-2-methyl-3-oxahexanoate] (in Water)
Procedure: as §1

| Test System | level (log10) [1] | level (log10) ([2]; 2200 nM) | level (log10) ([2]; 6700 nM) | level (log10) ([2]; 20000 nM) | level (log10) ([2]; 60000 nM) | level (log10) [3] | level (log10) [4] | level (log10) [5] | level (log10) ([6]; 2200 nM) | level (log10) ([6]; 6700 nM) | level (log10) ([6]; 20000 nM) | level (log10) ([6]; 60000 nM) | level (log10) [7] | level (log10) [8] | level (log10) [9] | level (log10) ([10]; 2200 nM) | level (log10) ([10]; 6700 nM) | level (log10) ([10]; 20000 nM) | level (log10) ([10]; 60000 nM) | level (log10) [11] | level (log10) [12] | level (log10) [13] | level (log10) [14] | level (log10) [15] | level (log10) [16] | level (log10) ([17]; 2200 nM) | level (log10) ([17]; 6700 nM) | level (log10) ([17]; 20000 nM) | level (log10) ([17]; 60000 nM) |
| --- | --- | --- | --- | --- | --- | --- | --- | --- | --- | --- | --- | --- | --- | --- | --- | --- | --- | --- | --- | --- | --- | --- | --- | --- | --- | --- | --- | --- | --- |
| BE3C:HLA-DR | 0.003 ± 0.04 | 0.006 ± 0.0085 | -0.003 | 0 ± 0.0028 | 0.0035 ± 0.018 | -0.009 | 0.0005 ± 0.023 | 0 ± 0.0085 | 0.003 ± 0.016 | -0.006 | -0.017 ± 0.0014 | -0.021 ± 0.028 | 0.0155 ± 0.035 | 0.003 ± 0.0085 | 0.004 ± 0.025 | 0 ± 0.0014 | -0.0025 ± 0.0021 | -0.011 ± 0.0028 | -0.012 ± 0.0099 | -0.0115 ± 0.0092 | 0.0125 ± 0.036 | 0.002 ± 0.038 | 0.007 ± 0.018 | 0.0005 ± 0.033 | -0.011 ± 0.025 | 0.006 ± 0.0085 | -0.022 ± 0.013 | -0.0015 ± 0.018 | -0.0265 ± 0.0021 |
| BE3C:IL-1alpha | 0.043 ± 0.052 | -0.0115 ± 0.0021 | -0.0175 ± 0.012 | -0.013 ± 0.0085 | -0.0075 ± 0.012 | 0.0255 ± 0.039 | 0.028 ± 0.04 | 0.018 ± 0.04 | -0.01 ± 0.017 | -0.014 ± 0.027 | -0.0295 ± 0.005 | -0.0045 ± 0.016 | 0.0255 ± 0.039 | 0.0005 ± 0.028 | 0.0135 ± 0.018 | 0 ± 0.0085 | 0.005 ± 0.0071 | -0.0115 ± 0.0035 | -0.002 ± 0.0042 | -0.0095 ± 0.005 | 0.031 ± 0.035 | 0.018 ± 0.03 | -0.005 ± 0.017 | 0.017 ± 0.033 | 0.036 ± 0.064 | -0.005 | -0.0215 ± 0.013 | -0.001 ± 0.0028 | -0.0085 ± 0.005 |
| BE3C:Keratin 8/18 | -0.01 ± 0.052 | -0.0045 ± 0.0078 | 0.003 ± 0.0014 | -0.0035 ± 0.00071 | -0.0165 ± 0.0078 | -0.025 ± 0.0042 | -0.0175 ± 0.026 | 0.008 ± 0.0014 | -0.0095 ± 0.0021 | -0.006 ± 0.0085 | -0.018 ± 0.0014 | -0.003 ± 0.0042 | 0.016 ± 0.018 | -0.004 ± 0.014 | 0.0035 ± 0.035 | -0.008 ± 0.0071 | -0.017 ± 0.0057 | -0.0125 ± 0.0035 | -0.0175 ± 0.021 | -0.006 ± 0.024 | 0.0015 ± 0.015 | -0.0015 ± 0.029 | -0.026 ± 0.028 | 0.009 ± 0.017 | -0.022 ± 0.031 | -0.011 ± 0.0057 | -0.042 ± 0.0042 | -0.019 ± 0.024 | -0.0165 ± 0.0092 |
| BE3C:MMP-1 | 0.012 ± 0.079 | -0.0075 ± 0.0035 | 0.0055 ± 0.028 | -0.011 ± 0.0057 | 0.019 ± 0.013 | 0.0295 ± 0.061 | 0.038 ± 0.083 | 0.0565 ± 0.0035 | -0.0315 ± 0.00071 | -0.011 ± 0.0099 | -0.023 ± 0.016 | 0.007 ± 0.058 | 0.026 ± 0.081 | 0.001 ± 0.0042 | 0.0095 ± 0.0092 | -0.009 ± 0.0099 | -0.0075 ± 0.0064 | 0 ± 0.011 | 0.0275 ± 0.012 | -0.003 ± 0.0028 | 0.0165 ± 0.0078 | 0.0235 ± 0.00071 | 0.019 ± 0.0028 | 0.088 ± 0.011 | 0.0035 ± 0.033 | 0.0495 ± 0.005 | 0.0325 ± 0.032 | 0.062 ± 0.038 | 0.136 ± 0.013 |
